Experimental data reported in PubChem BioAssay AID2417 (National Center for Advancing Translational Sciences (NCATS), 2010).
Screen size: about 140,000 compounds; about 4,300 (3.1%) were called active. The inconclusive results got no clear call from the source; some entries with a clear call stand among them for comparison.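 Rule for the calls: active = readout at or below -70, meaning at least 70% loss of cells showing the perinucleolar compartment, a nuclear body marking cancer cells; inconclusive = readout between -30 and a set limit; inactive = the rest.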

Assay: High Content Assay for Compounds that inhibit the Assembly of the Perinucleolar Compartment;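 note: plate controls were DMSO wells for no effect and camptothecin positive control wells for full effect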
Conditions: PC3M PTB-GFP, PNC prevalence imaging, 16 h; at 10 µM; active compounds read low
Summary of the method: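 Compounds are pinned in duplicate onto adhered PC3M cells stably expressing GFP-tagged PTB and incubated 16 h at 37 C. Cells are then fixed, nuclei stained with Hoechst, and PNC-positive cells counted.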

| SMILES | activity change (PNC), negative = inhibition |
| --- | --- |
| CCC(CC)NC(=O)CO/N=C/c1ccccc1OC(F)F | inactive: -7.56% |
| COc1cc2c(cc1OC)C(c1cc3cc4c(cc3[nH]c1=O)OCO4)N(C(=O)C(C)C)CC2 (stereo not given) | inconclusive: -53.7% |
| CC(=O)N1N=C(c2ccccc2)CC1c1cn(C)c2ccccc12 (stereo not given) | inconclusive: -31.4% |
| CCn1c(C)nc2cc(C(=O)NNC(=O)CCC3CCCCC3)ccc21 | inactive: -6.71% |
| CN(C)C(=O)COC(=O)c1ccccc1OCC(=O)Nc1ccc(SC(F)F)cc1 | inconclusive: -34.3% |
| Cc1ccc(-n2c(N)c(C(=O)N3CCOCC3)sc2=S)cc1 | active: -126% |
| CCOC(=O)C(NC(=O)CC)(Nc1ccccc1)C(F)(F)F (stereo not given) | inactive: 47.9% |
| CC(=O)C1=C(C)NC(SCC(N)=O)=C(C#N)C1c1sccc1C (stereo not given) | inactive: 117% |
| CCCCNC(=O)c1cccc(NC(=O)C(=O)c2ccccc2NC(C)=O)c1 | inconclusive: -40.2% |
| COC(=O)c1sc2ccccc2c1-n1cccc1C(=O)C(=O)Nc1ccc(Cl)cc1 | inactive: 51.5% |
| CCOc1c(Cl)cc(C2NC(=O)NC(C)=C2C(=O)NCc2ccccc2)cc1OC (stereo not given) | inconclusive: -30.2% |
| Cc1cc2ccccc2n1CCNC(=O)Cc1ccccc1 | inactive: 8.56% |
| CCOC(=O)c1c(-c2ccc(C)o2)csc1NC(=O)CN(C)CC(=O)Nc1ccc(C)cc1 | inactive: -13.6% |
| Cc1nc(NCC2CCCO2)nc2c1C(=O)CC(C)(C)C2 (stereo not given) | inconclusive: -40.2% |
| CCOC(=O)N1CCN(C(=O)c2ccc3c(=O)n(-c4ccc(OC)cc4)c(=S)[nH]c3c2)CC1 | inactive: 23% |
| N#CCC(=N)N1CCN(c2ccccc2)CC1 | inconclusive: -61% |
| C=CCN1C(c2ccc(Br)cc2)=CS/C1=C(/C#N)c1nnc(N2CCOCC2)n1-c1ccccc1 | inactive: -10.8% |
| COc1ccc(C(=O)N2CCN(C3CCC(c4ccccc4)CC3)CC2)cc1OC (stereo not given) | inactive: -19.6% |
| COc1ccc(CCn2c(NCc3ccco3)nc3c2c(=O)[nH]c(=O)n3C)cc1 | inconclusive: -34.8% |
| CN(c1cccc(NC(=O)CN(c2cccc(Cl)c2)S(=O)(=O)c2ccc(Cl)cc2)c1)S(C)(=O)=O | inconclusive: -64.6% |
| NNc1nc2ccc(F)cc2s1 | inactive: 24.1% |
| COc1ccc(N2C(=O)CSC2c2ccc3c(c2)OCO3)c(OC)c1 (stereo not given) | inconclusive: -56.9% |
| COc1cc2c(cc1OC)C(C1C(=O)CC(C)(C)CC1=O)N(C(=O)CCl)CC2 (stereo not given) | active: -80.1% |

| SMILES | activity change (PNC), negative = inhibition |
| --- | --- |
| Cc1nc2c([nH]1)C1(CCN(Cc3ccccc3)CC1)C(C#N)=C(N)O2 | inconclusive: -71% |
| Nc1cc2c(cc1C(=O)c1ccc(Cl)cc1)OCCO2 | inactive: 18.6% |
| CN(C)c1cccc(C(=O)Nc2ccc(N3CCOCC3)cc2)c1 | inconclusive: -31.7% |
| CC(C)(C)OC(=O)N1CCC(c2cc(=O)n3[nH]c(-c4ccc(Cl)cc4)cc3n2)CC1 | active: -83.8% |
| Cc1ccc(CSc2ncn(-c3ccccc3)n2)cc1 | inactive: -26.9% |
| Cc1ccc(CS(=O)(=O)CCC(=O)NCC2CCCO2)cc1 (stereo not given) | active: -83.7% |
| Cc1nn(Cc2ccc(Cl)cc2)c(C)c1NC(=O)C1CC=CCC1C(=O)O (stereo not given) | inconclusive: -60% |
| CC1CCN(Cc2csc(N)n2)CC1 | inconclusive: -48.2% |
| Cc1c(N=C2NC(=O)C(CC(=O)Nc3ccccc3)S2)c(=O)n(-c2ccccc2)n1C (stereo not given) | inconclusive: -41.5% |
| CC(Sc1nc2cc(Cl)ccc2s1)C(=O)Nc1ccc2c(c1)OCO2 (stereo not given) | inconclusive: -43.3% |
| COc1ccc(CCNC(=O)c2cc(-c3ccc(C)c(C)c3O)n[nH]2)cc1OC | inconclusive: -45.6% |
| Cc1ccc2cc(CCNC(=O)c3ccco3)c(=O)[nH]c2c1C | inconclusive: -64.9% |
| CCOC(=O)c1sc2nc3n(c(=O)c2c1C)CCC3 | inactive: 24.1% |
| Cc1oc2cc(O)ccc2c(=O)c1N1C(=O)c2ccccc2C1=O | inactive: 38% |
| CCOc1ccc(-c2nnc(SCC(=O)N3CCOCC3)o2)cc1 | inconclusive: -32.9% |
| O=C(O)C1OC(Oc2cc3oc(-c4ccccc4)cc(=O)c3c(O)c2O)C(O)C(O)C1O (stereo not given) | inconclusive: -49.9% |
| COc1cc2nc(=S)n3[nH]c(COc4ccccc4C)nc3c2cc1OC | inconclusive: -31.9% |
| Cc1ccccc1-n1c(-c2csc3ccccc23)n[nH]c1=S | inconclusive: -61.7% |
| Nc1nnc(SCc2ccccc2Cl)s1 | inactive: 19.9% |
| CCOC(=O)c1sc2nc(CC(=O)OC)nc(NCc3ccc(Cl)cc3)c2c1C | inconclusive: -62% |
| O=[N+]([O-])c1c(NCCCO)cc(Sc2ccc(Cl)cc2)c2nonc12 | inconclusive: -41.1% |
| Oc1sc(C=Nc2ccc(F)cc2)c2ccccc12 | inconclusive: -49.9% |
| CCc1ccccc1NC(=O)C(C#N)Cc1cccnc1 (stereo not given) | active: -82.1% |

2 records picked at random from those above, as already listed:

| SMILES | activity change (PNC), negative = inhibition |
| --- | --- |
| CCOC(=O)c1c(-c2ccc(C)o2)csc1NC(=O)CN(C)CC(=O)Nc1ccc(C)cc1 | inactive: -13.6% |
| Cc1ccc(CS(=O)(=O)CCC(=O)NCC2CCCO2)cc1 (stereo not given) | active: -83.7% |

Remaining list, next part

| SMILES | activity change (PNC), negative = inhibition |
| --- | --- |
| C=CCNS(=O)(=O)c1ccc2nsnc2c1 | inconclusive: -67.5% |
| S=C(NCc1ccccc1)NCc1ccccc1 | inactive: -21.5% |
| CCOc1ccc2nc(NC(=O)c3cc([N+](=O)[O-])ccc3N3CCOCC3)sc2c1 | active: -84.5% |
| O=C(c1cccc(S(=O)(=O)N2CCCC2)c1)c1cccc(S(=O)(=O)N2CCCC2)c1 | inactive: -14.1% |
| Cc1occc1C(=O)Nc1nnc(-c2ccncc2)s1 | inconclusive: -49.1% |
| Cc1cccc(NS(=O)(=O)c2ccc(C)c(C(=O)OCC(=O)Nc3cc(C)on3)c2)c1 | active: -100% |
| COc1ccc(S(=O)(=O)N2CCN(S(=O)(=O)c3ccc4c(c3)OCCO4)CC2)cc1C | inactive: -29.1% |
| CC1CCN(C(=O)CSc2nnc(CSc3ncccn3)n2C)CC1 | inactive: 31.8% |
| CCC(=O)Nc1ccc(C(=O)CSc2nnc(CNc3ccc(Cl)cc3)o2)cc1OC | inconclusive: -36.6% |
| COC(=O)c1ccc2nc(NC(=O)CSCC(=O)OCC(=O)c3ccccc3)sc2c1 | inconclusive: -43.8% |
| COc1cccc(C2=NO[C@@H]3C(=O)N(Cc4ccccc4)C(=O)[C@H]23)c1OC | active: -107% |
| Cc1cc(-n2c(C)cc(C(=O)CSc3nnnn3-c3ccc(Cl)cc3)c2C)no1 | active: -100% |
| O=C1C=C(NNC(=O)c2ccccc2Br)CCC1 | inactive: 124% |
| Cc1nn(CC(O)CN2c3ccccc3Sc3ccccc32)c(C)c1Br (stereo not given) | inconclusive: -45.2% |
| C=CCOC(=O)/C(=C\c1ccc(OC)cc1)NC(=O)c1ccco1 | inactive: -1% |
| C=CCOc1c(CNc2nccs2)cccc1OCC | inconclusive: -45.4% |
| CCCCN(C)C(=O)c1ccc2c(c1)N(CC)C(=O)c1ccccc1S2(=O)=O | inconclusive: -60.9% |
| COc1ccc(-c2cc(C(=O)Nc3c(C)nn(Cc4ccccc4)c3C)no2)cc1 | inconclusive: -36.2% |
| O=[N+]([O-])c1ccc(N/N=C2/CCCCC2c2ccccn2)c([N+](=O)[O-])c1 (stereo not given) | inconclusive: -79% |
| CN(C)S(=O)(=O)c1cccc(C(=O)OCC(=O)Nc2sccc2C(N)=O)c1 | inconclusive: -30% |
| Cc1ccccc1OCC(=O)Nc1ccc(S(=O)(=O)Nc2ccccn2)cc1 | inconclusive: -59.9% |
| COc1ccc(-c2nnc(SCC(=O)N3CCN(c4ccccc4)CC3)o2)cc1OC | inactive: 39.5% |
| CC(C)NC(=O)NC(=O)COc1cccc2c1OC(C)(C)C2 | inconclusive: -32.6% |

A draw from above in order of number of heavy atoms, largest number first.

| SMILES | activity change (PNC), negative = inhibition |
| --- | --- |
| CCC(=O)Nc1ccc(C(=O)CSc2nnc(CNc3ccc(Cl)cc3)o2)cc1OC | inconclusive: -36.6% |
| CCOc1ccc2nc(NC(=O)c3cc([N+](=O)[O-])ccc3N3CCOCC3)sc2c1 | active: -84.5% |
| Cc1cc(-n2c(C)cc(C(=O)CSc3nnnn3-c3ccc(Cl)cc3)c2C)no1 | active: -100% |
| Cc1ccccc1OCC(=O)Nc1ccc(S(=O)(=O)Nc2ccccn2)cc1 | inconclusive: -59.9% |
| COc1cccc(C2=NO[C@@H]3C(=O)N(Cc4ccccc4)C(=O)[C@H]23)c1OC | active: -107% |
| O=[N+]([O-])c1ccc(N/N=C2/CCCCC2c2ccccn2)c([N+](=O)[O-])c1 (stereo not given) | inconclusive: -79% |
| CC1CCN(C(=O)CSc2nnc(CSc3ncccn3)n2C)CC1 | inactive: 31.8% |
| C=CCOC(=O)/C(=C\c1ccc(OC)cc1)NC(=O)c1ccco1 | inactive: -1% |
| CC(C)NC(=O)NC(=O)COc1cccc2c1OC(C)(C)C2 | inconclusive: -32.6% |
| Cc1occc1C(=O)Nc1nnc(-c2ccncc2)s1 | inconclusive: -49.1% |
| O=C1C=C(NNC(=O)c2ccccc2Br)CCC1 | inactive: 124% |
| C=CCNS(=O)(=O)c1ccc2nsnc2c1 | inconclusive: -67.5% |

More entries:

| SMILES | activity change (PNC), negative = inhibition |
| --- | --- |
| CC1(C(=O)NC2CCCCCCC2)CCC(=O)N1Cc1ccco1 (stereo not given) | inconclusive: -38.5% |
| COC(=O)/C(=C\c1ccc2c(c1)c1ccccc1n2C)NC(=O)c1ccccc1 | inconclusive: -34.4% |
| Cc1ccc(NC(=O)c2ccc(OC(=O)c3ccco3)cc2)cc1 | inconclusive: -39.1% |
| COc1ccc(C(OC(=O)c2ccco2)C(=O)NCc2ccco2)cc1 (stereo not given) | inconclusive: -62.6% |
| Cc1cc(C)c(NC(=O)/C=C\C(=O)O)c([N+](=O)[O-])c1 | inactive: 5.16% |
| COc1cc(OC)cc(C(=O)NC(=S)Nc2cccnc2)c1 | inactive: 2.28% |
| COc1ccc(CCNC(=O)CCn2c(=O)[nH]c3cc(OC)c(OC)cc3c2=O)cc1OC | inconclusive: -55% |
| CCOC(=O)NC(NC(=S)Nc1ccccc1[N+](=O)[O-])C(Cl)(Cl)Cl (stereo not given) | inconclusive: -30.4% |
| COc1cccc(C(=O)NNC(=S)NC2CCCCC2)c1 | inconclusive: -59.4% |
| O=C(O)CCC(=O)NNc1ccccc1[N+](=O)[O-] | inactive: 27.4% |
| Cc1ccc(-c2nc3ccccc3o2)cc1NC(=O)c1ccc2c(c1)OCO2 | inconclusive: -52.1% |
| NC(=O)CSCc1nc2ccccc2s1 | inconclusive: -64.4% |
| CN(C)c1nc(OCC(=O)NC(C)(C)C)nc(N(C)C)n1 | inconclusive: -52.9% |
| CS(=O)(=O)N(CC(=O)NCc1ccccn1)Cc1ccc(Cl)cc1 | inconclusive: -35.2% |
| Cc1ccc(C(=O)COC(=O)c2ccc3c(c2)C(=O)N(c2cccc4ncccc24)C3=O)cc1 | inactive: 19.1% |
| CC(c1ccccn1)N(CCN(C)C)C(=S)Nc1ccccc1F (stereo not given) | active: -111% |
| COc1ccc(Cl)cc1C(=O)NNC1CC(=O)N(Cc2ccc(Cl)cc2)C1=O (stereo not given) | inconclusive: -46% |
| CC(=Nc1ccccc1)Nc1ccccc1 | inconclusive: -35.6% |
| CCCN(CCC)S(=O)(=O)c1ccc(C(=O)N2CCCc3ccccc32)cc1 | inactive: 18.5% |
| COc1ccc(-c2nc(-c3ccccc3)no2)c(OC)c1 | active: -102% |
| CNC(=O)CN(C)S(=O)(=O)c1ccc(OC)c(Cl)c1 | inconclusive: -47.7% |
